In the supplement of paper PMC12009310:
Structures can show the parent of a compound that is named as a salt. ± gives the standard deviation of the averaged measurements. This is one part of the list. Plates or batches differ in their baseline, so values are only roughly comparable.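 The cells are a mouse kidney inner medullary collecting duct line, silenced either for the ciliary gene Rpgrip1l or with a non-targeting control siRNA.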

Each molecule was assayed on mIMCD3 (assay: robust z score of cell number vs plate controls; higher = more cells (less cytotoxic)). Details: 10 µM; 48 h; siRNA: siRpgrip1l.

Compound | robust z score of cell number
CCCCN1CCC(CCC(=O)c2cc(Cl)c(N)cc2OC)CC1 | -12.8 ± 0.47
Clc1ccc(CCCOCCCN2CCCCC2)cc1 | -61.1 ± 53
CC(C)[C@H](NS(=O)(=O)c1ccc(-c2ccc(Br)cc2)cc1)C(=O)O | -4.98 ± 5.4
Cc1nc2c(OCc3ccccc3)cccn2c1CC#N | -39.8 ± 50
N#C/C(=C\c1ccc(O)c(O)c1)C(=O)NCc1ccccc1 | -49.8 ± 55
Nc1nc2ccc(OC(F)(F)F)cc2s1 [Riluzole hydrochloride] | -39.2 ± 7.8
CCN(CC)CCCCC1CCN(CC(=O)N2c3ccccc3C(=O)Nc3cccnc32)CC1 | -6.9 ± 4
CCCCOc1cc(CC2CNC(=O)N2)ccc1OC (stereo unspecified) | 1.89 ± 5.9
CCCCOC(=O)c1cc2c(cn1)[nH]c1ccccc12 | -37 ± 27
Brc1c(NC2=NCCN2)ccc2nccnc12 [UK 14,304 tartrate] | -3.18 ± 4.2
Cc1cc(C)c(N(Cc2ccccc2)S(=O)(=O)c2ccc(OCCNC(=O)c3cc4ccccc4o3)cc2)c(C(=O)NO)c1 | -32 ± 9.8
O=C(O)Cc1cccc(OCCCN(Cc2cccc(C(F)(F)F)c2Cl)CC(c2ccccc2)c2ccccc2)c1 [GW 3965 hydrochloride] | -32.5 ± 11
Cc1cc(Cn2cnc3c2CC(C(=O)O)N(C(=O)C(c2ccccc2)c2ccccc2)C3)ccc1N(C)C (stereo unspecified) | -62.9 ± 70
CC(C)[C@H](CO)Nc1nc(Nc2ccc(C(=O)O)c(Cl)c2)c2ncn(C(C)C)c2n1 [Purvalanol B] | 35.8 ± 40
CC1(COc2ccc(CC3SC(=O)NC3=O)cc2)CCCCC1 (stereo unspecified) [Ciglitazone] | -303 ± 220
Nc1[nH]nc2nnc(-c3c(-c4ccccc4)nn4ccccc34)cc12 | -9.6 ± 5.5
Cc1ccc(=O)n(-c2ccccc2)c1 [Pirfenidone] | -9.6 ± 3.9
CC(=Cc1ccc(C(=O)O)cc1)c1ccc2c(c1)C(C)(C)CCC2(C)C | -39.7 ± 12
COc1ccc(Nc2nccc(NCCO)n2)cc1 [Cardiogenol C hydrochloride] | -5.86 ± 1.2

Compound | robust z score of cell number
Cc1cc(C)cc(C(=O)N(C)[C@H](Cc2ccc(-c3ccccc3)cc2)C(=O)N[C@@H](Cc2c[nH]c3ccccc23)C(=O)O)c1 | -44.8 ± 41
CCCCCCN(CCCCCC)C(=O)Cc1c(-c2ccc(Cl)cc2)[nH]c2ccc(Cl)cc12 | -88.4 ± 66
CN(C)CCCSC(=N)N [Dimaprit dihydrochloride] | -14.8 ± 12
COc1ccc(CC(C)NCC(O)c2ccc(O)c(NC=O)c2)cc1 (stereo unspecified) [Formoterol hemifumarate] | -26.6 ± 36
Clc1ccc2nsnc2c1NC1=NCCN1 [Tizanidine hydrochloride] | -36.5 ± 45
CCOCC(O)COc1ccc(NC(=O)CC[S+](C)C)cc1 (stereo unspecified) [Suplatast tosylate] | -5.82 ± 4.7
CN(C)c1ccc(/C=C2/C(=O)Nc3ccccc32)cc1 | -76.7 ± 90
N[C@H](C(=O)O)c1ccc(C(=O)O)c(O)c1 [(S)-4-Carboxy-3-hydroxyphenylglycine] | 6.84 ± 14
O=C(Nc1cc(C(F)(F)F)cc(C(F)(F)F)c1)c1cc(Cl)ccc1O | -32.2 ± 10
COCCOC(=O)C1=C(C)NC(C)=C(C(=O)OC/C=C/c2ccccc2)C1c1cccc([N+](=O)[O-])c1 (stereo unspecified) [Cilnidipine] | -29.7 ± 12
CCN(CC)c1ccc(/C=N/NC(=O)c2ccc(O)cc2)cc1 | -24.4 ± 11
CCOC(=O)[C@H](CCc1ccccc1)N[C@H]1CCc2ccccc2N(CC(=O)O)C1=O [Benazepril hydrochloride] | -4.85 ± 1.3
O=C1C(Cl)=C(NCCN2CCOCC2)C(=O)c2ncccc21 | -44.1 ± 40
Cc1[nH]c(/C=C2\C(=O)Nc3ccccc32)c(C)c1CCC(=O)O | -14.2 ± 13
COc1ccc2cc([C@H](C)C(=O)O)ccc2c1 [Naproxen sodium] | 0.802 ± 4
COC(=O)C1=C(C)NC(C)=C([N+](=O)[O-])C1c1ccccc1C(F)(F)F (racemic) | -39.8 ± 48
COc1ccc(Cl)cc1NC(=O)Nc1cc(C)nc2ccccc12 | -31 ± 29
Cc1[nH]c(/C=C2\C(=O)Nc3ccc(S(=O)(=O)Cc4c(Cl)cccc4Cl)cc32)c(C)c1C(=O)N1CCC[C@@H]1CN1CCCC1 | -9.15 ± 9.2
COc1ccc2[nH]cc(CCNC(C)=O)c2c1 [Melatonin] | -7.39 ± 7.1

Same assay, conditions: 10 µM; 48 h; siRNA: siScr

Compound | robust z score of cell number
CCCCN1CCC(CCC(=O)c2cc(Cl)c(N)cc2OC)CC1 | -14.4 ± 13
Clc1ccc(CCCOCCCN2CCCCC2)cc1 | -51.5 ± 1.2
CC(C)[C@H](NS(=O)(=O)c1ccc(-c2ccc(Br)cc2)cc1)C(=O)O | 1.2 ± 8.5
Cc1nc2c(OCc3ccccc3)cccn2c1CC#N | -1.15 ± 3.1
N#C/C(=C\c1ccc(O)c(O)c1)C(=O)NCc1ccccc1 | -18.7 ± 16
Nc1nc2ccc(OC(F)(F)F)cc2s1 [Riluzole hydrochloride] | -29 ± 5.2
CCN(CC)CCCCC1CCN(CC(=O)N2c3ccccc3C(=O)Nc3cccnc32)CC1 | -0.887 ± 0.42
CCCCOc1cc(CC2CNC(=O)N2)ccc1OC (stereo unspecified) | -7.14 ± 3.8
CCCCOC(=O)c1cc2c(cn1)[nH]c1ccccc12 | -29.6 ± 22
Brc1c(NC2=NCCN2)ccc2nccnc12 [UK 14,304 tartrate] | -1.43 ± 0.64
Cc1cc(C)c(N(Cc2ccccc2)S(=O)(=O)c2ccc(OCCNC(=O)c3cc4ccccc4o3)cc2)c(C(=O)NO)c1 | -140 ± 110
O=C(O)Cc1cccc(OCCCN(Cc2cccc(C(F)(F)F)c2Cl)CC(c2ccccc2)c2ccccc2)c1 [GW 3965 hydrochloride] | -139 ± 100
Cc1cc(Cn2cnc3c2CC(C(=O)O)N(C(=O)C(c2ccccc2)c2ccccc2)C3)ccc1N(C)C (stereo unspecified) | -2.5 ± 0.44
CC(C)[C@H](CO)Nc1nc(Nc2ccc(C(=O)O)c(Cl)c2)c2ncn(C(C)C)c2n1 [Purvalanol B] | 4.87 ± 4.9
CC1(COc2ccc(CC3SC(=O)NC3=O)cc2)CCCCC1 (stereo unspecified) [Ciglitazone] | -40.4 ± 9.6
Nc1[nH]nc2nnc(-c3c(-c4ccccc4)nn4ccccc34)cc12 | -12.7 ± 4.6
Cc1ccc(=O)n(-c2ccccc2)c1 [Pirfenidone] | -0.363 ± 5.4
CC(=Cc1ccc(C(=O)O)cc1)c1ccc2c(c1)C(C)(C)CCC2(C)C | -31.4 ± 6.6
COc1ccc(Nc2nccc(NCCO)n2)cc1 [Cardiogenol C hydrochloride] | -6.11 ± 3

Compound | robust z score of cell number
Cc1cc(C)cc(C(=O)N(C)[C@H](Cc2ccc(-c3ccccc3)cc2)C(=O)N[C@@H](Cc2c[nH]c3ccccc23)C(=O)O)c1 | -44.6 ± 29
CCCCCCN(CCCCCC)C(=O)Cc1c(-c2ccc(Cl)cc2)[nH]c2ccc(Cl)cc12 | -108 ± 90
CN(C)CCCSC(=N)N [Dimaprit dihydrochloride] | -4.83 ± 3.9
COc1ccc(CC(C)NCC(O)c2ccc(O)c(NC=O)c2)cc1 (stereo unspecified) [Formoterol hemifumarate] | -0.548 ± 2.6
Clc1ccc2nsnc2c1NC1=NCCN1 [Tizanidine hydrochloride] | -2.08 ± 3.5
CCOCC(O)COc1ccc(NC(=O)CC[S+](C)C)cc1 (stereo unspecified) [Suplatast tosylate] | 0.0141 ± 2.3
CN(C)c1ccc(/C=C2/C(=O)Nc3ccccc32)cc1 | -10.8 ± 6.7
N[C@H](C(=O)O)c1ccc(C(=O)O)c(O)c1 [(S)-4-Carboxy-3-hydroxyphenylglycine] | 2.67 ± 2.3
O=C(Nc1cc(C(F)(F)F)cc(C(F)(F)F)c1)c1cc(Cl)ccc1O | -142 ± 110
COCCOC(=O)C1=C(C)NC(C)=C(C(=O)OC/C=C/c2ccccc2)C1c1cccc([N+](=O)[O-])c1 (stereo unspecified) [Cilnidipine] | -129 ± 100
CCN(CC)c1ccc(/C=N/NC(=O)c2ccc(O)cc2)cc1 | -20.7 ± 1.4
CCOC(=O)[C@H](CCc1ccccc1)N[C@H]1CCc2ccccc2N(CC(=O)O)C1=O [Benazepril hydrochloride] | -35.1 ± 38
O=C1C(Cl)=C(NCCN2CCOCC2)C(=O)c2ncccc21 | -44.5 ± 29
Cc1[nH]c(/C=C2\C(=O)Nc3ccccc32)c(C)c1CCC(=O)O | -3.57 ± 6.7
COc1ccc2cc([C@H](C)C(=O)O)ccc2c1 [Naproxen sodium] | -23.2 ± 3.4
COC(=O)C1=C(C)NC(C)=C([N+](=O)[O-])C1c1ccccc1C(F)(F)F (racemic) | 2.63 ± 5.9
COc1ccc(Cl)cc1NC(=O)Nc1cc(C)nc2ccccc12 | -14.6 ± 13
Cc1[nH]c(/C=C2\C(=O)Nc3ccc(S(=O)(=O)Cc4c(Cl)cccc4Cl)cc32)c(C)c1C(=O)N1CCC[C@@H]1CN1CCCC1 | -7.28 ± 3.1
COc1ccc2[nH]cc(CCNC(C)=O)c2c1 [Melatonin] | -4.87 ± 0.57
